This is one part of the list. No stated cut-off is given here; in the data, active = 2 or more and inactive = the rest. Most values lie within the scatter of the assay; repeated measurements hardly agree.

For this test, the system named is Lgr5 (MarsCy1-Lgr5-EGFP, U2OS). Briefly: cell-surface Lgr5 expression (SCi1 fluorescence, background-subtracted) relative to WT DMSO (fold of DMSO control); higher = more Lgr5 at the plasma membrane. To be noted: U2OS MarsCy1-Lgr5-EGFP stable; treatment time: overnight; library: ActiProbe-5K (TimTec); 25 µM.
Turning to `CSc1nsc(NC(=O)c2nc[nH]n2)n1`, the “cell-surface Lgr5 expression” value was inactive: 1.11.
Under `COc1ccc(-c2nn(CN3CCN(C(c4ccccc4)c4ccccc4)CC3)c(=S)n2C)cc1OC` stands inactive: 1.05.
As to `N#CC1(N2CCCCC2)C2CC3CC(C2)CC1C3` (stereo not given), the “cell-surface Lgr5 expression” value is inactive: 1.17.
Consider `Fc1ccc(C2N(Cc3ccccc3)CCN2Cc2ccccc2)cc1`, for which the “cell-surface Lgr5 expression” value was inactive: 1.42.
On to `C/C(=N/N)c1nnn(-c2nonc2N)c1C`, for which the “cell-surface Lgr5 expression” value is inactive: 1.06.
Take `CC1S/C(=N/N=C\c2ccc(F)cc2)N=C1O` (stereo not given): the “cell-surface Lgr5 expression” value was inactive: 1.13.
In the case of `O=S(=O)(Nc1ccc(Br)cn1)c1ccccc1`, the “cell-surface Lgr5 expression” value was inactive: 1.2.
Turning to `O=C(O)C1Nc2c(Cl)cc(Cl)cc2C2C=CCC12` (stereo not given), the “cell-surface Lgr5 expression” value was inactive: 1.06.
In the case of `O=S(=O)(c1ccc(Br)cc1)N1CCc2ccccc2C1` it was inactive: 1.37; in that of `Nc1csnc1-c1nnc(Nc2ccc3c(c2)OCO3)o1`, inactive: 1.23.
For the molecule `OC1(C(F)(F)F)CC(c2cccs2)=NO1` (stereo not given), the “cell-surface Lgr5 expression” value is inactive: 1.21.
Take `c1ccc(Cn2cc(Cn3nnc(-c4ccccc4)n3)nn2)cc1`: the “cell-surface Lgr5 expression” value was inactive: 1.12.
In the case of `Clc1ccc(CSc2ncn[nH]2)cc1Cl`, the “cell-surface Lgr5 expression” value was inactive: 1.01.
In the case of `N#Cc1c(N)nc2c(sc3nc4c(cc32)CCC4)c1-c1ccc(Br)cc1` it was inactive: 1.18; in that of `Fc1ccccc1N1CCN(Cn2cnc3ccccc32)CC1`, inactive: 1.35; in that of `S=c1oc(-c2ccco2)nn1CN1CCOCC1`, inactive: 1.13.
Under `C=CCC1(CC=C)CCCCN1.Cl` stands inactive: 1.09; under `CC12CC3(C)CC(N)(C1)CC(C(=O)O)(C2)C3`, inactive: 1.37.
Regarding `CC(C)CC1CCCC(CC(C)C)N1CCO` (stereo not given), the “cell-surface Lgr5 expression” value is inactive: 1.2.
In the case of `O=C1CCC(C(=O)O)NC(=O)N1` (stereo not given) it was inactive: 1.26.
Regarding `O=C(Nc1ccc2c(c1)OC1(CCCC1)O2)C1CC1`, the “cell-surface Lgr5 expression” value was inactive: 1.06.
Take `Brc1ccc(/C=N\c2ccc3cc4ccc(/N=C\c5ccc(Br)cc5)cc4nc3c2)cc1`: the “cell-surface Lgr5 expression” value was inactive: 1.32.
In the case of `Fc1cccc(Cl)c1C1Nc2cccc3cccc(c23)N1` it was inactive: 0.771; in that of `CC(C)c1ccc2c(c1)c1c3n2CCNC3CCC1` (stereo not given), inactive: 1.85.
With `OCCCc1nc2ccccc2[nH]1`, the “cell-surface Lgr5 expression” value is active: 3.1.
In the case of `CC12CC3CC(C)(C1)CC(CC(=O)N1CCN(S(C)(=O)=O)CC1)(C3)C2` it was inactive: 1.16; in that of `Cc1ccc(C2C(C#N)=C(N)Oc3[nH]nc(C(C)(C)C)c32)s1` (stereo not given), inactive: 1.23.
As to `O=C(Cc1cccs1)NC1CCCC1`, the “cell-surface Lgr5 expression” value is inactive: 1.04.
Take `CCCCNC(=O)n1cc(Cl)cn1`: the “cell-surface Lgr5 expression” value is inactive: 1.34.
Turning to `Cl.N=C(N)NC(=N)N1CCOCC1`, the “cell-surface Lgr5 expression” value is inactive: 1.38.

These data come from the supplement of paper PMC4683952.
